Source: US11541107B2, “Peptides and T cells for use in immunotherapeutic treatment of various cancers” (Immatics Biotechnologies GmbH, priority 2015, dated 2023)

Experiments:
[1] = test system: primary cancer tissue (A*24-positive samples); experiment: Presentation of HLA-A*24-binding tumor-associated peptides on tumor and normal tissues (HLA immunoprecipitation, LC-MS, XPRESIDENT); parameters: species or system human; settings: Table 9A; HLA-A*24-binding peptides; cancer entities on which the peptide was found presented
[2] = test system: source genes of the peptides; experiment: Target coverage of source genes based on TCGA Research Network expression data; parameters: species or system human; settings: for Target coverage, over-expression category of source gene, PRAD (N = 498): Prostate adenocarcinoma; for Target coverage, over-expression category of source gene, TGCT (N = 156): Testicular germ cell tumors; for Target coverage, over-expression category of source gene, UCS (N = 57): Uterine carcinosarcoma; for Target coverage, over-expression category of source gene, UCEC (N = 546): Uterine corpus endometrial carcinoma; for Target coverage, over-expression category of source gene, STAD (N = 415): Stomach adenocarcinoma; for Target coverage, over-expression category of source gene, THYM (N = 120): Thymoma; for Target coverage, over-expression category of source gene, THCA (N = 513): Thyroid carcinoma; for Target coverage, over-expression category of source gene, STAD: Stomach adenocarcinoma (N = 415); for Target coverage, over-expression category of source gene, TGCT: Testicular germ cell tumors (N = 156); for Target coverage, over-expression category of source gene, SARC: Sarcoma (N = 263); for Target coverage, over-expression category of source gene, THYM: Thymoma (N = 120); for Target coverage, over-expression category of source gene, UCS: Uterine carcinosarcoma (N = 57); for Target coverage, over-expression category of source gene, UCEC: Uterine corpus endometrial carcinoma (N = 546); for Target coverage, over-expression category of source gene, SKCM (N = 473): Skin cutaneous melanoma; for Target coverage, over-expression category of source gene, SKCM: Skin cutaneous melanoma (N = 473); for Target coverage, over-expression category of source gene, SARC (N = 263): Sarcoma
[3] = cutoff more than 2-fold above highest 75% percentile of normal organs

Substance: 382 (AYLPPLQQVF; listed as Homo sapiens) [compound 382]
- ENTITIES [1]: PCA, HCC, NSCLC, GC, RCC, GB

Substance: 321: peptide found in NME2 (gene looked up) (SLWFKPEEL; listed as Homo sapiens) [compound 321]
- Target coverage, over-expression category of source gene, PRAD (N = 498) [2, 3]: C (>=5% of tumors above the cutoff, but <20%)
- Target coverage, over-expression category of source gene, TGCT (N = 156) [2, 3]: C (>=5% of tumors above the cutoff, but <20%)

Substance: 173: peptide found in MMP10 (gene looked up) (QYLEKYYNL; listed as Homo sapiens) [compound 173]
- Target coverage, over-expression category of source gene, PRAD (N = 498) [2, 3]: C (>=5% of tumors above the cutoff, but <20%)
- Target coverage, over-expression category of source gene, UCS (N = 57) [2, 3]: C (>=5% of tumors above the cutoff, but <20%)
- Target coverage, over-expression category of source gene, UCEC (N = 546) [2, 3]: C (>=5% of tumors above the cutoff, but <20%)

Substance: 174: peptide found in MMP13 (gene looked up) (VYEKNGYIYF; listed as Homo sapiens) [compound 174]
- Target coverage, over-expression category of source gene, STAD (N = 415) [2, 3]: C (>=5% of tumors above the cutoff, but <20%)
- Target coverage, over-expression category of source gene, TGCT (N = 156) [2, 3]: C (>=5% of tumors above the cutoff, but <20%)
- Target coverage, over-expression category of source gene, THYM (N = 120) [2, 3]: C (>=5% of tumors above the cutoff, but <20%)
- Target coverage, over-expression category of source gene, THCA (N = 513) [2, 3]: C (>=5% of tumors above the cutoff, but <20%)
- Target coverage, over-expression category of source gene, UCS (N = 57) [2, 3]: C (>=5% of tumors above the cutoff, but <20%)

Substance: 363: peptide found in SLC7A11 (gene looked up) (SYAELGTTI; listed as Homo sapiens) [compound 363]
- Target coverage, over-expression category of source gene, STAD [2]: C (>=5% of tumors above the cutoff, but <20%)

Substance: 106: peptide found in KIFC1 (gene looked up) (IYNETVRDLL; listed as Homo sapiens) [compound 106]
- Target coverage, over-expression category of source gene, STAD (N = 415) [2, 3]: C (>=5% of tumors above the cutoff, but <20%)
- Target coverage, over-expression category of source gene, TGCT (N = 156) [2, 3]: A (>=50% of tumors above the cutoff)
- Target coverage, over-expression category of source gene, THYM (N = 120) [2, 3]: A (>=50% of tumors above the cutoff)
- Target coverage, over-expression category of source gene, UCS (N = 57) [2, 3]: A (>=50% of tumors above the cutoff)

Substance: 403: peptide found in MMP12 (gene looked up) (TYKYVDINTF; listed as Homo sapiens) [compound 403]
- Target coverage, over-expression category of source gene, STAD [2]: B (>=20% of tumors above the cutoff, but <50%)
- Target coverage, over-expression category of source gene, TGCT [2]: B (>=20% of tumors above the cutoff, but <50%)

Substance: 361: peptide found in PSMC1 (gene looked up) (TYADIGGLDNQI; listed as Homo sapiens) [compound 361]
- Target coverage, over-expression category of source gene, SARC [2]: C (>=5% of tumors above the cutoff, but <20%)
- Target coverage, over-expression category of source gene, TGCT [2]: B (>=20% of tumors above the cutoff, but <50%)
- Target coverage, over-expression category of source gene, THYM [2]: C (>=5% of tumors above the cutoff, but <20%)
- Target coverage, over-expression category of source gene, UCS [2]: C (>=5% of tumors above the cutoff, but <20%)
- Target coverage, over-expression category of source gene, UCEC [2]: B (>=20% of tumors above the cutoff, but <50%)

Substance: 340: peptide found in MOB1A (gene looked up) (SVAKTILKR; listed as Homo sapiens) [compound 340]
- Target coverage, over-expression category of source gene, STAD (N = 415) [2, 3]: C (>=5% of tumors above the cutoff, but <20%)

Substance: 342: peptide found in APOBEC3B (gene looked up) (NYAFLHRTL; listed as Homo sapiens) [compound 342]
- Target coverage, over-expression category of source gene, UCEC (N = 546) [2, 3]: C (>=5% of tumors above the cutoff, but <20%)

Substance: 320: peptide found in AURKA (gene looked up) (KFILALKVLF; listed as Homo sapiens) [compound 320]
- Target coverage, over-expression category of source gene, TGCT (N = 156) [2, 3]: A (>=50% of tumors above the cutoff)
- Target coverage, over-expression category of source gene, THYM (N = 120) [2, 3]: C (>=5% of tumors above the cutoff, but <20%)
- Target coverage, over-expression category of source gene, UCS (N = 57) [2, 3]: A (>=50% of tumors above the cutoff)
- Target coverage, over-expression category of source gene, UCEC (N = 546) [2, 3]: C (>=5% of tumors above the cutoff, but <20%)

Substance: 214: peptide found in CCNB2 (gene looked up) (KYLMELTLI; listed as Homo sapiens) [compound 214]
- Target coverage, over-expression category of source gene, SKCM (N = 473) [2, 3]: C (>=5% of tumors above the cutoff, but <20%)
- Target coverage, over-expression category of source gene, TGCT (N = 156) [2, 3]: A (>=50% of tumors above the cutoff)
- Target coverage, over-expression category of source gene, THYM (N = 120) [2, 3]: A (>=50% of tumors above the cutoff)
- Target coverage, over-expression category of source gene, UCEC (N = 546) [2, 3]: C (>=5% of tumors above the cutoff, but <20%)

Substance: 397: peptide found in KIF2C (gene looked up) (IYNGKLFDL; listed as Homo sapiens) [compound 397]
- Target coverage, over-expression category of source gene, SARC [2]: B (>=20% of tumors above the cutoff, but <50%)
- Target coverage, over-expression category of source gene, SKCM [2]: B (>=20% of tumors above the cutoff, but <50%)
- Target coverage, over-expression category of source gene, STAD [2]: B (>=20% of tumors above the cutoff, but <50%)
- Target coverage, over-expression category of source gene, TGCT [2]: A (>=50% of tumors above the cutoff)
- Target coverage, over-expression category of source gene, THYM [2]: A (>=50% of tumors above the cutoff)
- Target coverage, over-expression category of source gene, UCS [2]: A (>=50% of tumors above the cutoff)
- Target coverage, over-expression category of source gene, UCEC [2]: B (>=20% of tumors above the cutoff, but <50%)

Substance: 415: peptide found in PBK (gene looked up) (SYQKVIELF; listed as Homo sapiens) [compound 415]
- Target coverage, over-expression category of source gene, SARC [2]: C (>=5% of tumors above the cutoff, but <20%)
- Target coverage, over-expression category of source gene, SKCM [2]: B (>=20% of tumors above the cutoff, but <50%)
- Target coverage, over-expression category of source gene, STAD [2]: B (>=20% of tumors above the cutoff, but <50%)
- Target coverage, over-expression category of source gene, TGCT [2]: C (>=5% of tumors above the cutoff, but <20%)
- Target coverage, over-expression category of source gene, THYM [2]: C (>=5% of tumors above the cutoff, but <20%)
- Target coverage, over-expression category of source gene, UCS [2]: C (>=5% of tumors above the cutoff, but <20%)
- Target coverage, over-expression category of source gene, UCEC [2]: C (>=5% of tumors above the cutoff, but <20%)

Substance: 191: peptide found in TIGIT (gene looked up) (TYPDGTYTGRIF; listed as Homo sapiens) [compound 191]
- Target coverage, over-expression category of source gene, SARC (N = 263) [2, 3]: C (>=5% of tumors above the cutoff, but <20%)
- Target coverage, over-expression category of source gene, SKCM (N = 473) [2, 3]: C (>=5% of tumors above the cutoff, but <20%)
- Target coverage, over-expression category of source gene, TGCT (N = 156) [2, 3]: C (>=5% of tumors above the cutoff, but <20%)

Substance: 125: peptide found in PRKDC (gene looked up) (VFSRDFGLLVF; listed as Homo sapiens) [compound 125]
- Target coverage, over-expression category of source gene, SARC (N = 263) [2, 3]: C (>=5% of tumors above the cutoff, but <20%)
- Target coverage, over-expression category of source gene, SKCM (N = 473) [2, 3]: C (>=5% of tumors above the cutoff, but <20%)
- Target coverage, over-expression category of source gene, UVM (N = 80) ([2]; Uveal melanoma, cutoff more than 2-fold above highest 75% percentile of normal organs): C (>=5% of tumors above the cutoff, but <20%)

Substance: 404: peptide found in MMP12 (gene looked up) (RYLEKFYGL; listed as Homo sapiens) [compound 404]
- Target coverage, over-expression category of source gene, STAD [2]: B (>=20% of tumors above the cutoff, but <50%)
- Target coverage, over-expression category of source gene, TGCT [2]: B (>=20% of tumors above the cutoff, but <50%)

Substance: 54: peptide found in ITGA2 (gene looked up) (FINPKGNWLL; listed as Homo sapiens) [compound 54]
- Target coverage, over-expression category of source gene, STAD (N = 415) [2, 3]: C (>=5% of tumors above the cutoff, but <20%)
- Target coverage, over-expression category of source gene, THYM (N = 120) [2, 3]: C (>=5% of tumors above the cutoff, but <20%)
- Target coverage, over-expression category of source gene, THCA (N = 513) [2, 3]: C (>=5% of tumors above the cutoff, but <20%)

Substance: 399: peptide found in MET (gene looked up) (SYIDVLPEF; listed as Homo sapiens) [compound 399]
- Target coverage, over-expression category of source gene, SKCM [2]: C (>=5% of tumors above the cutoff, but <20%)
- Target coverage, over-expression category of source gene, STAD [2]: C (>=5% of tumors above the cutoff, but <20%)
- Target coverage, over-expression category of source gene, THCA ([2]; Thyroid carcinoma (N = 513)): A (>=50% of tumors above the cutoff)
- Target coverage, over-expression category of source gene, UVM ([2]; Uveal melanoma (N = 80)): B (>=20% of tumors above the cutoff, but <50%)

For some assays here: Expression values are those of the mRNA of the gene that encodes the peptide; a gene is named only where it was looked up.
